Data on 35 compounds can be found in PubChem BioAssay (NCATS).

The other results are listed elsewhere or left out. The main result of the screen is listed elsewhere. These columns were measured beside it and carry no call. Compounds called inactive in the main read-out are mostly missing here. Words in brackets tell the shape of the fitted curve; partial curves, single points and poor fits give uncertain potencies.

This test can be described thus: S16 Schwann cell PMP22 intronic element beta-lactamase assay (AID 624044). The note with it: S16 rat Schwann cells, PMP22 element beta-lactamase FRET, 24 h; measured here: 460 nm blue channel. The gist of the method: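 Beta-lactamase reporter under a PMP22 intronic regulatory element in stable S16 rat Schwann cells; 24 h compound exposure. 460 nm blue signal normalized between DMSO (0%) and potassium clavulanate, with 535 nm FRET tracking viability; curves classed by r2 and response.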
Broadly, the AC50 is the concentration at which the activity in the assay is half-maximal. A higher AC50 goes with activity only at high concentration. As for `Cc1ccc(/C=C2/C(=O)C3(C)CCC2C3(C)C)cc1` (stereo not given), the AC50 was 12.6 µM [falling, partial curve, poor fit].
With `C#C[C@]1(O)CC[C@H]2[C@H]3[C@H](CC[C@@]21C)C1=C(CC(=O)CC1)C[C@@H]3C`, the AC50 is 14.1 µM [falling, single point].
As for `CCCCCCCCCCCC(=O)OCC(O)C1OCC(O)C1O` (stereo not given), the AC50 is 3.98 µM [falling, full curve, poor fit].
Under `CCCSS/C(CCO)=C(/C)N(C=O)Cc1cnc(C)nc1N` stands 1.26 µM [falling, full curve, poor fit]; under `C[C@@H]1COc2c(N3CCN(C)CC3)c(F)cc3c(=O)c(C(=O)O)cn1c23`, 3.55 µM [falling, partial curve, poor fit]; under `O=C(Nc1ccc(O)cc1)c1ccccc1O`, 22.4 µM [rising, partial curve].
For the compound `CO[C@H]1[C@@H](OC(N)=O)[C@H](O)[C@@H](Oc2ccc3c(O)c(NC(=O)c4ccc(O)c(CC=C(C)C)c4)c(=O)oc3c2C)OC1(C)C`, the AC50 was 0.0213 µM [falling, full curve, poor fit].
As for `CCN(CC)CCNC(=O)c1cc(Br)c(N)cc1OC`, the figure is 6.31 µM [falling, partial curve, poor fit]; as for `O=C(O)c1cn(C2CC2)c2cc(N3CCNCC3)c(F)cc2c1=O`, 0.848 µM [falling, full curve, poor fit]; as for `c1ccc2c(c1)CCC[C@@H]2C1=NCCN1`, 0.178 µM [falling, full curve, poor fit].
`CC[N+](C)(C)c1cccc(O)c1`: the concentration at half-maximal activity (AC50) is 2.13 µM [rising, full curve, poor fit].
For the compound `CNC1CCc2cc(OC)c(OC)c(OC)c2-c2ccc(OC)c(=O)cc21` (stereo not given), the half-maximal activity concentration (AC50) is 0.224 µM [falling, full curve].
For `OCCOC[C@H]1O[C@H](OCCO)[C@H](OCCO)[C@@H](OCCO)[C@@H]1OCCO` (tested in a mixture with another compound), the AC50 was 12.6 µM [falling, full curve, poor fit].
As for `Cc1ccc(S(=O)(=O)NC(=O)NC(C)Cc2ccccc2)cc1` (stereo not given), the figure is 0.891 µM [falling, full curve, poor fit].
`NS(=O)(=O)c1cc2c(cc1C(F)(F)F)N[C@H](Cc1ccccc1)NS2(=O)=O`: the AC50 was 0.134 µM [falling, full curve, poor fit].
In the case of `CN(N=O)C(=O)N[C@H]1[C@@H](O)[C@H](O)[C@H](CO)O[C@@H]1O`, the AC50 was 5.35 µM [falling, partial curve, poor fit].
As to `O=C(O)COc1ccccc1/C=N/NC(=O)c1ccncc1`, the AC50 is 0.0141 µM [falling, full curve, poor fit].
On to `Nc1nc(=O)n([C@@H]2CS[C@H](CO)O2)cc1F`, for which the AC50 was 3.98 µM [falling, full curve, poor fit].
On to `CCOC(CN1CCN(CC(C)C(=O)c2ccccc2)CC1)c1ccccc1` (stereo not given), for which the AC50 was 0.0199 µM [falling, full curve, poor fit].
Consider `NC[C@@H]1O[C@H](O[C@H]2[C@H](O)[C@H](O[C@@H]3O[C@H](CO)[C@@H](O)[C@H](N)[C@@H]3O)[C@@H](N)C[C@H]2N)[C@@H](O)[C@H](O)[C@@H]1O`, for which the AC50 was 6 µM [falling, partial curve, poor fit].
As for `CC[C@@]1(O)C[C@H](O[C@H]2C[C@@H](N(C)C)[C@@H](O[C@H]3C[C@@H](O)[C@@H](O[C@H]4CCC(=O)[C@@H](C)O4)[C@@H](C)O3)[C@@H](C)O2)c2c(cc3c(c2O)C(=O)c2c(O)cccc2C3=O)[C@H]1C(=O)OC`, the figure is 0.251 µM [falling, full curve]; as for `C[Se]CC[C@H](N)C(=O)O`, 0.0501 µM [falling, full curve, poor fit].
Under `Nc1cccc2c1CN(C1CCC(=O)NC1=O)C2=O` (stereo not given) stands 25.1 µM [falling, single point].
For the compound `O=C(O)c1ccc(OCCn2ccnc2)cc1`, the AC50 is 0.0224 µM [falling, full curve, poor fit].
Under `CO/N=C(/C(=O)N[C@@H]1C(=O)N2C(C(=O)O)=C(CSc3nnnn3C)CS[C@H]12)c1csc(N)n1` stands 25.1 µM [rising, single point]; under `Nc1nc(Cl)nc2c1ncn2C1CC(O)C(CO)O1` (stereo not given), 2.82 µM [falling, full curve]; under `CCOC(=O)OC(C)OC1=C(C(=O)Nc2ccccn2)N(C)S(=O)(=O)c2ccccc21` (stereo not given), 6.31 µM [falling, full curve].
Under `N=C(N)c1ccc(/C=C/c2ccc(C(=N)N)cc2O)cc1` stands 12.6 µM [falling, single point]; under `CO[C@]1(NC(=O)CSCC#N)C(=O)N2C(C(=O)O)=C(CSc3nnnn3C)CS[C@H]21`, 0.0501 µM [falling, partial curve, poor fit]; under `C[C@](N)(Cc1ccc(O)cc1)C(=O)O`, 25.1 µM [rising, single point].
In the case of `CCCCC(=O)O[C@]1(C(=O)CO)CCC2C3CCC4=CC(=O)CCC4(C)C3C(O)CC21C` (stereo not given in full), the AC50 is 3.98 µM [falling, full curve].
As for `O=C(Oc1cccc2cccnc12)c1ccccc1`, the figure is 3.98 µM [falling, partial curve, poor fit]; as for `CCCCN(CCCC)CCCOC(=O)c1ccc(N)cc1`, 0.0268 µM [rising, full curve, poor fit]; as for `C=C1C(=CC=C2CCC[C@@]3(C)[C@@H]2CC[C@H]3[C@H](C)CCCC(C)C)C[C@@H](O)C[C@@H]1O`, 7.07 µM [falling, partial curve, poor fit].
Under `O=S(c1cc(Cl)cc(Cl)c1O)c1cc(Cl)cc(Cl)c1O` stands 14.1 µM [falling, single point].
